The other results are listed elsewhere or left out.
compound: C[C@H](Nc1ncnc2nc[nH]c12)c1cc2cccc(Cl)c2c(=O)n1-c1ccccc1 [duvelisib]; assay: log2 fold change, soluble protein after heating vs DMSO (PISA); higher = thermal stabilisation; K562 cells, 10 uM, 30 min; active = over 0.2 and 3.5 SD of the protein, either way, in both replicates (recomputed)
Summary of the method: (§1)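 K562 cells (2×10^6 cells/mL) were treated with 10 μM compound for 30 min, and aliquots were heated for 3 min over 48°C-58°C. Pooled aliquots were extracted in PBS with 0.5% NP-40 at 4°C, and the supernatant after 21,000xg for 90 min was measured by TMTpro 16plex LC-MS/MS with channel sums equalised. Reported thermal stability, relative to control samples and from duplicates, is a log2 fold change.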

Sequences of proteins named here, by UniProt entry; tags and fusion partners are left off. A change or cut given only in a name is not applied to a line headed by its entry.
UniProt P20936: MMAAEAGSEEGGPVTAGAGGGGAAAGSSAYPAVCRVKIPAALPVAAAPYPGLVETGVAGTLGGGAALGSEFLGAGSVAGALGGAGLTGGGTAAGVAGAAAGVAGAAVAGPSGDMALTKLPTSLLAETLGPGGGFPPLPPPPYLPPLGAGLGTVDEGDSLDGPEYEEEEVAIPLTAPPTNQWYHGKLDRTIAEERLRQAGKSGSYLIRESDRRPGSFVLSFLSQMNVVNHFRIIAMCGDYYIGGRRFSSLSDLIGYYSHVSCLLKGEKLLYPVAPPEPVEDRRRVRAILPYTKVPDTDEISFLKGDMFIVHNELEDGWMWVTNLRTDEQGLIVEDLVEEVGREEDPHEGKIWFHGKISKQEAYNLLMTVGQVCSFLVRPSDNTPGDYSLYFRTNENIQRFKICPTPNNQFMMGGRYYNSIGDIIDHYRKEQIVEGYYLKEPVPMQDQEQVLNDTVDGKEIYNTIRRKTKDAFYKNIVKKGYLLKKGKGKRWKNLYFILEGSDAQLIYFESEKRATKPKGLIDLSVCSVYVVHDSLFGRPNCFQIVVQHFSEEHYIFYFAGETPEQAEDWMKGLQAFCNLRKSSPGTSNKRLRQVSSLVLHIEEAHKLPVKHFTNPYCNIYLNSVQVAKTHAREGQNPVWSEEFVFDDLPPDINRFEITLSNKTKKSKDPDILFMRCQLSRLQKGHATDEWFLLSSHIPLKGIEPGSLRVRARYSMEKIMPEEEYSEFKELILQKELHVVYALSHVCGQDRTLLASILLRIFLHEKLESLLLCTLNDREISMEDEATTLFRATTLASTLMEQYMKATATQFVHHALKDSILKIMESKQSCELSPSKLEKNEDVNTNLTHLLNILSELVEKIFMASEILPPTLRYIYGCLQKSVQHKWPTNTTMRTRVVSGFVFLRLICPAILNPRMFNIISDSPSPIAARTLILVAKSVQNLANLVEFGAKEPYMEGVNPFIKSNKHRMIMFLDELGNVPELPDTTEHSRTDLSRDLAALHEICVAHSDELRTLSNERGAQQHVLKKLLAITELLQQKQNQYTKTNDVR
UniProt P62491: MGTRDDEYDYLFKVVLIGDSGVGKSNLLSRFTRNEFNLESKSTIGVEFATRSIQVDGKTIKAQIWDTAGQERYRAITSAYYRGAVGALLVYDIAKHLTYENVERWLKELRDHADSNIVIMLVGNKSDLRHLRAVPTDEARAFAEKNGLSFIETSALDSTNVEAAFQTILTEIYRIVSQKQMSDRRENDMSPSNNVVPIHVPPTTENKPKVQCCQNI
UniProt Q13636: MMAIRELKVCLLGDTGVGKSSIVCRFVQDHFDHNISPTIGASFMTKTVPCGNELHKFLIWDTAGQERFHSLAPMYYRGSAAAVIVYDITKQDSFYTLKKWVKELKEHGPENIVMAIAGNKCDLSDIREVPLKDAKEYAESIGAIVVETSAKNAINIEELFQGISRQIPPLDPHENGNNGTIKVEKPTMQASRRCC
UniProt Q99638: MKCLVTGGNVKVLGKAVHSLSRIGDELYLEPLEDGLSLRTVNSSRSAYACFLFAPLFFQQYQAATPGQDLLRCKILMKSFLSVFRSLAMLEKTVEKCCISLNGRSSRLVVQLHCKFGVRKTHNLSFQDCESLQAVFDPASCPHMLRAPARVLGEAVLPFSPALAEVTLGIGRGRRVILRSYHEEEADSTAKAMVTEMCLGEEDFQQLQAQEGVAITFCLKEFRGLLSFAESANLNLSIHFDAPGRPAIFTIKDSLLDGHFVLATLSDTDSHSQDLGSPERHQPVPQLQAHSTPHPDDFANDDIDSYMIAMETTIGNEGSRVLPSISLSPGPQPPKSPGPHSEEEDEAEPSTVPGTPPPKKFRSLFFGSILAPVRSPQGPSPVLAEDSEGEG
UniProt Q15042: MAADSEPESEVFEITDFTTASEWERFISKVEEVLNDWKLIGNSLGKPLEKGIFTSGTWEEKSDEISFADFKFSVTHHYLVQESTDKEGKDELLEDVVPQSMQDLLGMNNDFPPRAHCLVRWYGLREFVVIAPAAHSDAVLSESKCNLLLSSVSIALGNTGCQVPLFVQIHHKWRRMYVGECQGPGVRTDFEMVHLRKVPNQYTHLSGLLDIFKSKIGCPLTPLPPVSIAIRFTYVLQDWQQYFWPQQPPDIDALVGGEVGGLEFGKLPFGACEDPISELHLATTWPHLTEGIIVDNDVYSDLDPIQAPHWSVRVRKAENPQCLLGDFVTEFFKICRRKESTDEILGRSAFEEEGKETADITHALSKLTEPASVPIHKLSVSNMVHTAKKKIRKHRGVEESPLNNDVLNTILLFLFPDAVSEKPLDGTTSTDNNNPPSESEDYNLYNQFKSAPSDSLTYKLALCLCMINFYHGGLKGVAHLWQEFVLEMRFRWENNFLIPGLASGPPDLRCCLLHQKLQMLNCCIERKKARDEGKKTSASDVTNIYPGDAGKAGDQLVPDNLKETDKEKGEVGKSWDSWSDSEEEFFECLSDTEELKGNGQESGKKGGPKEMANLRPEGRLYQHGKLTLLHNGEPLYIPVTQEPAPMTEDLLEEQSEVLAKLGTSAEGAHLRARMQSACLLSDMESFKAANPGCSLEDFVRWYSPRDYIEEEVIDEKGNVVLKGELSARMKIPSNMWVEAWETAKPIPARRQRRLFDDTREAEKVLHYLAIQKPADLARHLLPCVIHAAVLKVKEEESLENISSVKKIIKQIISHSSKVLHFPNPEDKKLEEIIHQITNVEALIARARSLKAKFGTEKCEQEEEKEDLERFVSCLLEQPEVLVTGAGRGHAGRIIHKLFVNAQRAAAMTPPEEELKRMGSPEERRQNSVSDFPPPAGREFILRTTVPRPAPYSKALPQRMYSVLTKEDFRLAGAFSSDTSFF
UniProt P61006: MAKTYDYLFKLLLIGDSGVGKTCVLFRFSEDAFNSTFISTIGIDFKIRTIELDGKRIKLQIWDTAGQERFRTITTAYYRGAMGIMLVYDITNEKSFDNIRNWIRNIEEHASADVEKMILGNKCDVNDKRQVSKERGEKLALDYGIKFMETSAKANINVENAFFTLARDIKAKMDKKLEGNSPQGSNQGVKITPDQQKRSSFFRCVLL
UniProt Q6WKZ4: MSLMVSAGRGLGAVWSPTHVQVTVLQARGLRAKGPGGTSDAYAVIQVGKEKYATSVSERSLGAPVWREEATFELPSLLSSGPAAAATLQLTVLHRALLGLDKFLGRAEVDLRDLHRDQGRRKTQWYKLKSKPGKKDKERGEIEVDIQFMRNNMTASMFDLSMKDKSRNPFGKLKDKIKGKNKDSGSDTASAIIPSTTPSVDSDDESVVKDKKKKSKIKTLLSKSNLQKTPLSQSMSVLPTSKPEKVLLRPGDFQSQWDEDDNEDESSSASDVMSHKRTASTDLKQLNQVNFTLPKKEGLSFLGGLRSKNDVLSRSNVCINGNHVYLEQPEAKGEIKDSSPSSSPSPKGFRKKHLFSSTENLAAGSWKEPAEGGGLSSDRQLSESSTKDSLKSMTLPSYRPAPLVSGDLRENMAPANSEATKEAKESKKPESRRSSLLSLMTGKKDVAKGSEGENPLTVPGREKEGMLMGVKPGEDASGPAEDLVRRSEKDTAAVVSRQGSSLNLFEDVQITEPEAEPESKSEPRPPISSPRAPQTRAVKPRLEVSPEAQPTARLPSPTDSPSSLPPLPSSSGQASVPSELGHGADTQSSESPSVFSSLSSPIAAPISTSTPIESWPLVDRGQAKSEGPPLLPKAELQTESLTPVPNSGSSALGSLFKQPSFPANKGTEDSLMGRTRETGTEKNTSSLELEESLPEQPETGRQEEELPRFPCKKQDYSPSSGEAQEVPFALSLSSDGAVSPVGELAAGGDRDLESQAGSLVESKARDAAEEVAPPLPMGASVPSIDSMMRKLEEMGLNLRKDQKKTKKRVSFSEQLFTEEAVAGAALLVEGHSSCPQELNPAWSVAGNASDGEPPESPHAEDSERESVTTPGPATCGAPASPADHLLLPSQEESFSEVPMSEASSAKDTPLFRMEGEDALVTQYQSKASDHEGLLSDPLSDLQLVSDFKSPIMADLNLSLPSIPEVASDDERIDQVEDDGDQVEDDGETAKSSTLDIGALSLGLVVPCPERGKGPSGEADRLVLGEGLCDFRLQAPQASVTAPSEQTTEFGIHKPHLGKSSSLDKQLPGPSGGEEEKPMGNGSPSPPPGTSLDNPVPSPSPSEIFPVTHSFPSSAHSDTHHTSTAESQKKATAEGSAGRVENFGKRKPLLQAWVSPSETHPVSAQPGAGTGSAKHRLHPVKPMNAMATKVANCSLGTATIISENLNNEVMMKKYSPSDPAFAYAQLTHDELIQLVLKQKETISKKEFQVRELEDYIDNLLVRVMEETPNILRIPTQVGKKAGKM
UniProt Q8TEU7: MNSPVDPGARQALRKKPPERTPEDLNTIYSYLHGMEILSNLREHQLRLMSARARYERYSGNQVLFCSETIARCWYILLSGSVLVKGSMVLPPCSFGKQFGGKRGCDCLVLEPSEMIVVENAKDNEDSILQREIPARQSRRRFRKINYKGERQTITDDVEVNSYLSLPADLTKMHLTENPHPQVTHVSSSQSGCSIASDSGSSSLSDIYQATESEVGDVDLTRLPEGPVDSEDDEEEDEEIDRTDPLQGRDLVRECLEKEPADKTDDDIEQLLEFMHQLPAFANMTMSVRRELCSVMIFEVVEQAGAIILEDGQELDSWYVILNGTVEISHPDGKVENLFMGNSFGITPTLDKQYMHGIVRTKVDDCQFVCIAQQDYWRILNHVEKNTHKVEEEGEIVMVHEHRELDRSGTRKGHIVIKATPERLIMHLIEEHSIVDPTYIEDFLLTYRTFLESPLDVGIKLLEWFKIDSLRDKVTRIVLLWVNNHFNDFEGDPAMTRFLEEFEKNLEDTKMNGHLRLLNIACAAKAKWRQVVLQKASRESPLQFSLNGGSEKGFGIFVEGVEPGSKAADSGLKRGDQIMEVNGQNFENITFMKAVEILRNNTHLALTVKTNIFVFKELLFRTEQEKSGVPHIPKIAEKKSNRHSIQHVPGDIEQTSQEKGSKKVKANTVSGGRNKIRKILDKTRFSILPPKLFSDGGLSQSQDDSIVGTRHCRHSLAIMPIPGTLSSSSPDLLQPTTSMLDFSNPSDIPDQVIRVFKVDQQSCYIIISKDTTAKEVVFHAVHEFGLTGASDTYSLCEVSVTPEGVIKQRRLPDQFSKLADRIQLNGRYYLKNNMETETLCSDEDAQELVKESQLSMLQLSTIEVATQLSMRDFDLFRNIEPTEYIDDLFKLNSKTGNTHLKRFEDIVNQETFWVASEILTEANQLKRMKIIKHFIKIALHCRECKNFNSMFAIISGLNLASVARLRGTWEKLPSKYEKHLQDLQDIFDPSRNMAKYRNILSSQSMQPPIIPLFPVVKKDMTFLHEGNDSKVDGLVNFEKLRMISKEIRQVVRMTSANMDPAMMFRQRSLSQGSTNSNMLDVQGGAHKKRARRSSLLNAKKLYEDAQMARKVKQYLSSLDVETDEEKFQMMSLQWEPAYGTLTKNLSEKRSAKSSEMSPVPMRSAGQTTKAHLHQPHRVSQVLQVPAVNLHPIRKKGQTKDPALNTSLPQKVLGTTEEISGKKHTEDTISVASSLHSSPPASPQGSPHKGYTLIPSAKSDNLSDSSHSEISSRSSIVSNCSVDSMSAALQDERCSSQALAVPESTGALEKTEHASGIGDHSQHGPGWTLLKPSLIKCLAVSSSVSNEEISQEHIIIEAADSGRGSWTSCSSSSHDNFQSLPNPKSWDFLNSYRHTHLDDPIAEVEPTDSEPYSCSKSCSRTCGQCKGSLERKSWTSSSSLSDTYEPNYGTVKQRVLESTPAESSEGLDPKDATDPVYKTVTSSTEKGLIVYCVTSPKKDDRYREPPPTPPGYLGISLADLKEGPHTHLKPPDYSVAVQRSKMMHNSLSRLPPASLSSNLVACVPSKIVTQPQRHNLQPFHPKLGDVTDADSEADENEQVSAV
UniProt Q6VN20, whole entry, looked up: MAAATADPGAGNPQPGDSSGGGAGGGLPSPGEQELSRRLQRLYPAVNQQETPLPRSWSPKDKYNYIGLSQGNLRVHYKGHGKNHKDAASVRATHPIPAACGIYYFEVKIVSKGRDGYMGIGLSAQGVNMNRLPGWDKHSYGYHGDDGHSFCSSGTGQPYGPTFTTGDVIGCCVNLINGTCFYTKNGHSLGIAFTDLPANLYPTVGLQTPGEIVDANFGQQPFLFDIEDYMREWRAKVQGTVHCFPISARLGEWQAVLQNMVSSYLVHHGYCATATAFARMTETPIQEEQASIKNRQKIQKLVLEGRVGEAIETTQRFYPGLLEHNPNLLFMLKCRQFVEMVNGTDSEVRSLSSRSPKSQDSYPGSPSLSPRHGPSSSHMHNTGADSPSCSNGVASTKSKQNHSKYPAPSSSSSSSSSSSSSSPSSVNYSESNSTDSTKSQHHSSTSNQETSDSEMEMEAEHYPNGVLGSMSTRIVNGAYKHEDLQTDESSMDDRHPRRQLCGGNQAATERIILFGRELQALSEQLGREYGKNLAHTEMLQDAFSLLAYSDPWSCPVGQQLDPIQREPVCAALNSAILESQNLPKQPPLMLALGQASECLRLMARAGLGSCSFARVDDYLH

log2 fold change, inactive:
RASA1 (UniProt P20936) -0.163
RAP1B (UniProt F5GZG1) 0.036
RASA2 (UniProt Q15283) -0.267
RAB11A (UniProt P62491) 0.069
RALGAPB (UniProt Q86X10) -0.222
RALGAPA1 isoform 6 (UniProt Q6GYQ0) 0.011
RACK1 (UniProt D6RF23) 0.168
RAP1A (UniProt P62834) 0.044
RASSF5 (UniProt Q8WWW0) 0.06
RAB31 (UniProt Q13636) 0.076
RAD9A (UniProt Q99638) -0.013
RAD51AP1 (UniProt Q96B01) 0.02
RACGAP1 (UniProt Q9H0H5) 0.008
RAB6D (UniProt Q53S08) 0.076
RAN (UniProt P62826) 0.006
RAB3GAP1 (UniProt Q15042) 0.119
RAPGEF2, A0A2R8YGD3 0.055
RANGAP1 (UniProt P46060) -0.002
RAB8A isoform 2 (UniProt P61006) 0.057

compound: Cc1cc(Nc2cc(CN3CCOCC3)c3nc(C)c(Cc4ccc(Cl)cc4F)n3n2)n[nH]1 [gandotinib]; assay: as above
Summary of the method: as §1

log2 fold change, inactive:
RAB11FIP1 (UniProt Q6WKZ4) -0.01
RAB8B (UniProt Q92930) -0.086
RBM22 (UniProt Q9NW64) -0.04
RALY (UniProt Q9UKM9) 0.098
RASA2 (UniProt Q15283) 0.013
RAB11A (UniProt P62491) 0.076
RALBP1 (UniProt Q15311) 0.148
RANBP2 (UniProt P49792) -0.066
RBM27 (UniProt Q9P2N5) -0.019
RB1CC1 (UniProt Q8TDY2) 0.132
RACK1 (UniProt D6RF23) -0.207
RAD51 (UniProt Q06609) 0.01
RAP1A (UniProt P62834) 0.019
RASSF5 (UniProt Q8WWW0) 0.007
RAPGEF6 isoform 4 (UniProt Q8TEU7) -0.032
RAB31 (UniProt Q13636) 0.13
RAD9A (UniProt Q99638) -0.043
RAD51AP1 (UniProt Q96B01) 0.049
RB1 (UniProt P06400) -0.168
RANBP10 (UniProt Q6VN20) 0.311
RACGAP1 (UniProt Q9H0H5) -0.112
RAB6D (UniProt Q53S08) 0.016
RAN (UniProt P62826) 0.018
RAB3GAP1 (UniProt Q15042) -0.021
RAPGEF2, A0A2R8YGD3 -0.218
RALA (UniProt P11233) -0.001
RANGAP1 (UniProt P46060) -0.056
RAB8A isoform 2 (UniProt P61006) -0.065
RAC1 (UniProt P63000) -0.037
